# Data as given in the supplement of paper PMC11348887.
# Structures can show the parent of a compound that is named as a salt. Some of the results follow. Most entries show no effect beyond the scatter of the controls. Where a SMILES comes first, the peptide text is derived from it. Bridges are numbered along the chain shown (N, C = ends). [ ]: non-standard residue; d: D form. The star is where a group is joined. Ileψ(thiazoline)Cys = CC[C@H](C)[C@H](N)C1=N[C@H](C(=O)*)CS1; dOrn = NCCC[C@@H](N)C(=O)O
# System: hPSC-derived cortical neurons (WA09)
# Test: KCl-induced FOS+/EGR-1+ double-positive nuclei fraction z-score (KCl minus unstimulated); higher = stronger activity-induced IEG response
# Details: 5 µM; treatment: days 7-14 after plating, readout day 21
row,Structure (SMILES),KCl-induced FOS+/EGR-1+ double-positive nuclei fraction z-score
1,O=C(CCc1ccc(O)cc1)c1c(O)cc(O)cc1O [Phloretin],2.75
2,CCN(CC)Cc1ccc2cc(COC(=O)Nc3ccc(C(=O)NO)cc3)ccc2c1 [Givinostat (ITF2357)],-2.13
3,COc1cc(OCc2cccc(-c3ccccc3)c2C)cc(OC)c1CN1CCCC[C@H]1C(=O)O [PD-1/PD-L1 inhibitor 1],1.67
4,O=C(Cc1ccc(-c2ccc(OCCN3CCOCC3)cc2)cn1)NCc1ccccc1,-2.58
5,CC/C(=C(\c1ccc(O)cc1)c1ccc(OCCNC)cc1)c1ccccc1 [Endoxifen HCl],-1.33
6,C[C@H](CCC(=O)O)[C@H]1CC[C@H]2[C@@H]3[C@@H](O)C[C@@H]4C[C@H](O)CC[C@]4(C)[C@H]3CC[C@]12C [Ursodiol],-0.36
7,C[C@H](CCC(=O)O)[C@H]1CC[C@H]2[C@@H]3CC[C@@H]4C[C@H](O)CC[C@]4(C)[C@H]3CC[C@]12C [Lithocholic acid],0.48
8,Cc1cccc(Nc2nc(-c3ccncc3)cs2)c1,2.68
9,CCCN[C@H]1CCc2nc(N)sc2C1 [Pramipexole 2HCl Monohydrate],0.658
10,O=C(CCCN1CCC(O)(c2ccc(Cl)cc2)CC1)c1ccc(F)cc1 [Haloperidol],-1.48
11,Cc1ccsc1C(=CCCN1CCC[C@@H](C(=O)O)C1)c1sccc1C [Tiagabine],1.07
12,CC(=O)OCC(=O)[C@@]1(O)CC[C@H]2[C@@H]3CCC4=CC(=O)C=C[C@]4(C)[C@H]3[C@@H](O)C[C@@]21C [Prednisolone Acetate],-0.454
13,COc1cc(C(=O)N2CCC(N3CCN(C)CC3)CC2)ccc1Nc1ncc2c(n1)N(C)c1ccccc1C(=O)N2C,-0.826
14,Cn1c(Nc2ccc(C(F)(F)F)cc2)nc2cc(Oc3ccnc(-c4ncc(C(F)(F)F)[nH]4)c3)ccc21,-1.34
15,CC1CNc2c(cccc2S(=O)(=O)N[C@@H](CCCNC(=N)N)C(=O)N2CC[C@@H](C)C[C@@H]2C(=O)O)C1 (stereo not given in full) [Argatroban],0.354
16,CC(C(=O)O)c1ccc(C(=O)c2cccs2)cc1 (stereo not given) [Suprofen],0.194
17,S=C(NCc1ccc2c(c1)OCO2)N1CCN(c2ncnc3c2oc2ccccc23)CC1 [Amuvatinib (MP-470)],1.66
18,Cc1ccc(NC(=O)C2(c3ccc4c(c3)OC(F)(F)O4)CC2)nc1-c1cccc(C(=O)O)c1 [VX-809 (Lumacaftor)],0.00074
19,C=CC(=O)Nc1cc(Nc2nccc(-c3cn(C)c4ccccc34)n2)c(OC)cc1N(C)CCN(C)C,3.62
20,CC[C@H](C)[C@H](N)C1=N[C@H](C(=O)N[C@@H](CC(C)C)C(=O)N[C@H](CCC(=O)O)C(=O)N[C@H](C(=O)N[C@H]2CCCCNC(=O)[C@H](CC(N)=O)NC(=O)[C@@H](CC(=O)O)NC(=O)[C@H](Cc3cnc[nH]3)NC(=O)[C@@H](Cc3ccccc3)NC(=O)[C@H]([C@@H](C)CC)NC(=O)[C@@H](CCCN)NC2=O)[C@@H](C)CC)CS1 [Bacitracin] ({Ileψ(thiazoline)Cys}-L[dE]IK[dOrn]I[dF]H[dD]N; lactam 4-C),0.0366

row,Structure (SMILES),KCl-induced FOS+/EGR-1+ double-positive nuclei fraction z-score
1,CCNC(=O)c1noc(-c2cc(C(C)C)c(O)cc2O)c1-c1ccc(CN2CCOCC2)cc1,-1.31
2,CN1CCN(c2ccc3nc(-c4c(N)c5c(F)cccc5[nH]c4=O)[nH]c3c2)CC1 [Dovitinib (TKI258) Lactate],-0.89
3,COc1ccc2cc1Oc1ccc(cc1)C[C@H]1c3c(cc4c(c3Oc3cc5c(cc3OC)CCN(C)[C@@H]5C2)OCO4)CCN1C [Cepharanthine],5.91
4,CC/C(=C(/CC)c1ccc(O)cc1)c1ccc(O)cc1 [Diethylstilbestrol],-0.706
5,NC(=O)c1cccc2cn(-c3ccc([C@@H]4CCCNC4)cc3)nc12 [Niraparib (MK-4827) tosylate],0.496
6,Cc1cc(C)cc(C(=O)NOCCCCCC(=O)NO)c1,-1.26
7,CCOC(=O)C1=C[C@]2(CC)CCCN3CCc4c(n1c1ccccc41)[C@@H]32 [Vinpocetine],1.23
8,COc1ccc(CN2CCN(C(c3ccc(F)cc3)c3ccc(F)cc3)CC2)c(OC)c1OC [Lomerizine HCl],-1.21
9,Cc1cc(Cl)ccc1OCCCC(=O)NO [Droxinostat],-0.328
10,O=c1c(O)c(-c2ccc(O)cc2O)oc2cc(O)cc(O)c12 [Morin Hydrate],1.12
11,COc1nc(OCc2cccc(-c3ccccc3)c2C)ccc1CNCCNC(C)=O [PD-1/PD-L1 inhibitor 2],-0.721
12,CCC1=C[C@@H]2CN(C1)Cc1c([nH]c3ccccc13)[C@@](C(=O)OC)(c1cc3c(cc1OC)N(C)[C@H]1[C@@](O)(C(=O)OC)[C@H](OC(C)=O)[C@]4(CC)C=CCN5CC[C@]31[C@@H]54)C2 [Vinorelbine Tartrate],-0.214
13,COc1ccnc2[nH]cc(C(=O)C(=O)N3CCN(C(=O)c4ccccc4)C[C@H]3C)c12,1.09
14,CN(C)c1ccc(O)c2c1C[C@H]1C[C@H]3[C@H](N(C)C)C(O)=C(C(N)=O)C(=O)[C@@]3(O)C(O)=C1C2=O [Minocycline HCl],0.316
15,CCCCc1nc(Cl)c(CO)n1Cc1ccc(-c2ccccc2-c2nnn[nH]2)cc1 [Losartan Potassium (DuP 753)],0.237
16,COC[C@H](NC(=O)c1cnc(C)s1)C(=O)N[C@@H](COC)C(=O)N[C@@H](Cc1ccccc1)C(=O)[C@@]1(C)CO1 [Oprozomib (ONX 0912)],-0.81
17,CN1C2=CC(=O)/C(=N\NC(N)=O)C=C2CC1S(=O)(=O)O (stereo not given) [Carbazochrome sodium sulfonate (AC-17)],-0.536
18,C[C@H](CCC(=O)O)[C@H]1CC[C@H]2[C@@H]3CC[C@@H]4C[C@H](O)CC[C@]4(C)[C@H]3C[C@H](O)[C@]12C [Deoxycholic acid],0.127
19,C/C(=N\NC(=O)c1cccc(S(=O)(=O)N2CCOCC2)c1)c1cc(Cl)ccc1O,0.618
20,Cc1cc(C2CCCCC2)n(O)c(=O)c1 [Ciclopirox ethanolamine],-0.129

# Three of the compounds above, with tabs:
row	Structure (SMILES)	KCl-induced FOS+/EGR-1+ double-positive nuclei fraction z-score
14	CN(C)c1ccc(O)c2c1C[C@H]1C[C@H]3[C@H](N(C)C)C(O)=C(C(N)=O)C(=O)[C@@]3(O)C(O)=C1C2=O [Minocycline HCl]	0.316
15	CCCCc1nc(Cl)c(CO)n1Cc1ccc(-c2ccccc2-c2nnn[nH]2)cc1 [Losartan Potassium (DuP 753)]	0.237
16	COC[C@H](NC(=O)c1cnc(C)s1)C(=O)N[C@@H](COC)C(=O)N[C@@H](Cc1ccccc1)C(=O)[C@@]1(C)CO1 [Oprozomib (ONX 0912)]	-0.81
